Reference: PMC6964919
These are yes or no findings as the source states them, for the method shown. Binding seen in cells or lysates may run through a third protein. A yes stands for co-enrichment or nearness to the bait. Other partners may have been found.

B1: Sf3b1 (protein, UniProt Q99NB9 1-1304)
chain: MAKIAKTHEDIEAQIREIQGKKAALDEAQGVGLDSTGYYDQEIYGGSDSRFAGYVTSIAATELEDDDDDYSSSTSLLGQKKPGYHAPVALLNDIPQSTEQYDPFAEHRPPKIADREDEYKKHRRTMIISPERLDPFADGGKTPDPKMNARTYMDVMREQHLTKEEREIRQQLAEKAKAGELKVVNGAAASQPPSKRKRRWDQTADQTPGATPKKLSSWDQAETPGHTPSLRWDETPGRAKGSETPGATPGSKIWDPTPSHTPAGAATPGRGDTPGHATPGHGGATSSARKNRWDETPKTERDTPGHGSGWAETPRTDRGGDSIGETPTPGASKRKSRWDETPASQMGGSTPVLTPGKTPIGTPAMNMATPTPGHIMSMTPEQLQAWRWEREIDERNRPLSDEELDAMFPEGYKVLPPPAGYVPIRTPARKLTATPTPLGGMTGFHMQTEDRTMKSVNDQPSGNLPFLKPDDIQYFDKLLVDVDESTLSPEEQKERKIMKLLLKIKNGTPPMRKAALRQITDKAREFGAGPLFNQILPLLMSPTLEDQERHLLVKVIDRILYKLDDLVRPYVHKILVVIEPLLIDEDYYARVEGREIISNLAKAAGLATMISTMRPDIDNMDEYVRNTTARAFAVVASALGIPSLLPFLKAVCKSKKSWQARHTGIKIVQQIAILMGCAILPHLRSLVEIIEHGLVDEQQKVRTISALAIAALAEAATPYGIESFDSVLKPLWKGIRQHRGKGLAAFLKAIGYLIPLMDAEYANYYTREVMLILIREFQSPDEEMKKIVLKVVKQCCGTDGVEANYIKTEILPPFFKHFWQHRMALDRRNYRQLVDTTVELANKVGAAEIISRIVDDLKDEAEQYRKMVMETIEKIMGNLGAADIDHKLEEQLIDGILYAFQEQTTEDSVMLNGFGTVVNALGKRVKPYLPQICGTVLWRLNNKSAKVRQQAADLISRTAVVMKTCQEEKLMGHLGVVLYEYLGEEYPEVLGSILGALKAIVNVIGMHKMTPPIKDLLPRLTPILKNRHEKVQENCIDLVGRIADRGAEYVSAREWMRICFELLELLKAHKKAIRRATVNTFGYIAKAIGPHDVLATLLNNLKVQERQNRVCTTVAIAIVAETCSPFTVLPALMNEYRVPELNVQNGVLKSLSFLFEYIGEMGKDYIYAVTPLLEDALMDRDLVHRQTASAVVQHMSLGVYGFGCEDSLNHLLNYVWPNVFETSPHVIQAVMGALEGLRVAIGPCRMLQYCLQGLFHPARKVRDVYWKIYNSIYIGSQDALIAHYPRIYNDDKNTYIRYDLDYIL
B2: ZC3HAV1 (protein, UniProt Q3UPF5 1-996)
chain: MTDPEVFCFITKILCAHGGRMTLEELLGEISLPEAQLYELLKAAGPDRFVLLETGDQAGITRSVVATTRARVCRRKYCQRPCDSLHLCKLNLLGRCHYAQSQRNLCKYSHDVLSEQNFQVLKNHELSGLNQEELAVLLVQSDPFFMPEICKSYKGEGRKQICGQPQPCERLHICEHFTRGNCSYLNCLRSHNLMDRKVLAIMREHGLSSDVVQNIQDICNNKHTRRNPPSMRAPHPHRRGGAHRDRSKSRDRFHHNSLEVLSTVSPLGSGPPSPDVTGCKDPLEDVSADVTQKFKYLGTQDRAQLSSVSSKAAGVRGPSQMRASQEFLEDGDPDGLFSRNRSDSSTSRTSAAGFPLVAAQRNEAGAMKMGMPSGHHVEVKGKNEDIDRVPFLNSYIDGVTMEEATVSGILGKRATDNGLEEMILSSNHQKSVAKTQDPQTAGRITDSGQDTAFLHSKYEENPAWPGTSTHNGPNGFSQIMDETPNVSKSSPTGFGIKSAVTGGKEAVYSGVQSLRSHVLAMPGETTTPVQGSNRLPPSPLSSSTSHRVAASGSPGKSSTHASVSPASEPSRMMMMMSDPAEYSLCYIVNPVSPRMDDHGLKEICLDHLYRGCQQVNCNKNHFHLPYRWQLFILPTWMDFQDMEYIERAYCDPQIEIIVIEKHRINFKKMTCDSYPIRRLSTPSFVEKTLNSVFTTKWLWYWRNELNEYTQYGHESPSHTSSEINSAYLESFFHSCPRGVLQFHAGSQNYELSFQGMIQTNIASKTQRHVVRRPVFVSSKDVEQKRRGPDHQPVMPQADALTLFSSPQRNASTVSSNEYEFIELNNQDEEYAKISEQFKASMKQFKIVTIKRIWNQKLWDTFERKKQKMKNKTEMFLFHAVGRIHMDYICKNNFEWILHGNREIRYGKGNYFTKEAMYSHKSCSYDSRGTVMFVARVLVGSVIEGNMTLSSPPALYDSCVDTRLNPSVFVIFRKEQIYPEYVIEYMELEKEKGCIIS
B3: G3BP2 (protein, UniProt P97379 1-482)
chain: MVMEKPSPLLVGREFVRQYYTLLNKAPEYLHRFYGRNSSYVHGGVDASGKPQEAVYGQNDIHHKVLSLNFSECHTKIRHVDAHATLSDGVVVQVMGLLSNSGQPERKFMQTFVLAPEGSVPNKFYVHNDMFRYEDEVFGDSEPELDEESEDEVEEEQEDRQPSPEPVQENANSAYYDAHPVTNGIEEPLEESSHEPEPEPESETKTEELKPQVEEKHLEELEEKSATPPPAEPASLPQEPPKAFSWASVTSKNLPPSGTVSSSGIPPHVKAPVSQPRVDAKPEVQSQPPRVREQRPRERPGFPPRGPRPGRGDMEQNDSDNRRIIRYPDSHQLFVGNLPHDIDENELKEFFMSFGNVVELRINTKGVGGKLPNFGFVVFDDSEPVQRILIAKPIMFRGEVRLNVEEKKTRAARERETRGGGDDRRDIRRNDRGPGGPRGIVGGGMMRDRDGRGPPPRGGMTQKLGSGRGTGQMEGRFTGQRR
B4: eIF2Balpha (protein, UniProt Q99LC8 1-305)
chain: MEDGELIEYFKSQMKGDPKMASAVAAIQTLLEFLKRDKGETLQGLRANLTYAIKTLCGVDSSVAVSSGGELFLRFISLTSLEYSDYSKCKKIMIERGELFLRRISLSRNKIANLCHTFIKDGARILTHAYSRVVLRVLEEAVAAKKRFSVYITESQPDLSGKKMAKALSHLNVPVTVVLDAAVGYIMEKADLVIVGAEGVVENGGIINKIGTNQMAVCAKAQNKPFYVVAESFKFVRLFPLNQEDVPDKFKYKADTLKSVQTGQDLKEEHPWVDYTSPSLITLLFTDLGVLTPSAVSDELIKLYL
B5: eIF2Bepsilon (protein, UniProt Q8CHW4 1-717)
chain: MAATAAVPGAAAGRASKRGGGGSGGGGTQGAEEEPPPPLQAVLVADSFNRRFFPISKDQPRVLLPLANVALIDYTLEFLTATGVQETFVFCCWKAAQIKEHLQKSKWCHPTSPNVVRIITSELYRSLGDVLRDVDAKALVRSDFLLIYGDVISNINICRALEEHRLRRKLEKNVSVMTMVFKESSPSHPTRCHEDNVVMAVDSATNRVLHFQKTQGLRRFSFPLSLFQGSGDGVEIRYDLLDCHISICSPQVAQLFTDNFDYQTRDDFVRGILMNEEVLGNQIHLHVTTREYGARVSNLHMYSAVCADVIRRWVYPLTPEVNFTDSTTQSYTHSRHNIYRGPEVSLGHGSVLEENVLLGAGTVIGSNCSITNSVIGPNCHIGDNVVLDQAYLWQGVRVAAGAQIHQSLLCDRAEVKERVKLKPYCVLTSQVVVGPDITLPEGSVISLHPPDAEEDEDDGQFSDDSGADQEKEKVKLKGYNPAEVGLEGQGYLWKAEGVNSKEDEELRQSLWGLMIKTEEESETESEGSVDPEELDSRAGSPQLDDIRVFQNEVLGTLQRGREENISCENLVLEINSLKHAYNISLKEVMQVLTLVVLEFPLQQVDGLLDPNRYCALLLPLLKAWSPVLRNYIKRAADHLEALAAIEDFFLEHETLVTSMAKVLMAFYQLEILAEETILSWFSQRDTTDEGQQLRKNQQLQRFIQWLREAEEESSEDD
B6: PABP2 (protein, UniProt Q8CCS6 1-302)
chain: MAAAAAAAAAAGAAGGRGSGPGRRRHLVPGAGGEAGEGDPGGAGDYGNGLESEELEPGELLPEPEPEEEPPRPRAPPGAPGPGPGSGAPGSQEEEEEPGLVEADPGDGAIEDPELEAIKARVREMEEEAEKLKELQNEVEKQMNMSPPPGNAGPVIMSLEEKMEADARSIYVGNVDYGATAEELEAHFHGCGSVNRVTILCDKFSGHPKGFAYIEFSDKESVRTSLALDESLFRGRQIKVIPKRTNRPGISTTDRGFPRSRYRARTTNYNSSRSRFYSGFNSRPRGRIYRGRARATSWYSPY
B7: PUM3 (protein, UniProt Q8BKS9 1-647)
chain: MEVKGKKKFTGKSPQTSQGKNKFHKNSESSSSKTFPRKAVKEGGPKVTSKNFEKGATKPGKKGVKQFKNKPQGGKGPKDKFQKANKFSKKRKFQPDGESDESGAKKPKWDDFKKKKKELKQSRQLSDKTNYDIVVRAKHIWESLRRKDCDKEKRVKLMSDLQKLIQGKIKTIAFAHDSTRVIQCFIQYGNEEQRKQAFQELQGDLVELSKAKYSRNIVKKFLMYGSKPQVAEIIRSFKGHVRKMLRHSEASAIVEYAYNDKAILEQRNMLTEELYGNTFQLYKSADHPTLDKVLELQPAKLELIMDEMKQILTPMAQKEAVIKHSLVHKVFLDFFTYAPPKPRSELIEAIREAVVYLAHTHDGARVAMHCLWHGTPKDRKVIVKTMKTYVEKVANGQYSHLVLLAAFDCIDDTKLVKQIIISEIISSLPSIVNDKYGRKVLLYLMSPRDPAHTVPELIELLQKGDGNAHSKKDTAIRRRELLESISPALLSYLQGHTQEVVLDKSACVLVSDMLGSATGDVQPAMDAIASLAAAELHPGGKDGELHVAEHPAGHLVLKWLLEQDKKMKESGKEGCFAKTLVERVGMKNLKSWASINRGAIILSSLLQSCDQEVVNKVKGGLKPLIPTLEKNKSSSRGIQTLLEKLTA

Molecular target: GFP-tagged G3BP1 (Ras-GTPase activating SH3 domain binding protein 1)
Assay: affinity purification with mass spectrometry

Binder	binding
B1	binds
B2	binds
B3	binds
B4	binds
B5	binds
B6	binds
B7	binds
